The numbers were not newly measured in US20100029734A1, “METHODS FOR BREAST CANCER SCREENING AND TREATMENT” (Ore Pharmaceuticals Inc., priority 2008, published 2010), which cites them from elsewhere.

For data set [1], the system named is MCF-7. The settings on record: read-out: IC50 for antiproliferative effect; estrogen-stimulated MCF-7 cells; cited from earlier work.
The test system of data set [2] is T47D. The following applies: read-out: IC50 for antiproliferative effect; estrogen-stimulated T47D cells; cited from earlier work.

By IC50 is commonly meant the point on the concentration scale where inhibition reaches its midpoint. With `CC/C(=C(\c1ccccc1)c1ccc(OCCN(C)C)cc1)c1ccccc1` [tamoxifen], the results for the IC50 in data set [1] and in data set [2] were 45.5 nM and 11.8 nM, respectively.
